Laboratory results taken from PubChem BioAssay AID248 (DTP/NCI, 2004).
The list is a part of this screen's results and no random one: it covers a few groups of compounds. Other doses and runs of a compound may be missing. T/C: endpoint of the treated group in % of that of the vehicle group. Some doses have a count of surviving animals in place of a T/C: the source files T/C as zero there, which appears to mark a toxic dose or a test without result, not a measured value. Some survivor counts are full or nearly so, which does not show that the dose was tolerated: the source hardly ever lists a survival T/C far under the control, and the zero likely stands for such cases as well. Counts of survivors are from the toxicity check (mostly the fifth day) where no day follows; animals may have died later. Schedules are NCI's codes, read here as Q, the interval in days (D) or hours (H), X, the number of doses. Where survival is the endpoint, the PubChem record calls one and a half times the control and up active, and a quarter to a half above the control has no call in these data; cut-offs in other NCI protocols can differ. Some T/C values are followed by the survivors on the day toxicity was checked, most often the fifth; without a count or a note in brackets, all were alive then.

System: L1210 leukemia ip in BDF1 mice, survival T/C
Assay: NCI In Vivo Anticancer Drug Screen. Data for tumor model L1210 Leukemia (intraperitoneal) in B6D2F1 (BDF1) mice
Details: T/C endpoint: mean survival time, higher T/C = longer survival
[1] = dose: 50.0 mg/kg/injection, schedule: Q04DX003 (ip), vehicle: Klucel (hydroxypropylcellulose) (HPC)
[2] = dose: 100.0 mg/kg/injection, schedule: Q04DX003 (ip), vehicle: Klucel (hydroxypropylcellulose) (HPC)

With `C1CCC(NC2CCCCC2)CC1.CC(C)(Oc1ccc(N(CCCl)CCCl)cc1)C(=O)O` the T/C (dose: 12.0 mg/kg/injection, schedule: Q01DX009 (ip), vehicle: Klucel (hydroxypropylcellulose) (HPC)) was 114 % of control, the T/C (dose: 18.0 mg/kg/injection, schedule: Q01DX009 (ip), vehicle: Klucel (hydroxypropylcellulose) (HPC)) was 129 % of control and the T/C (dose: 22.0 mg/kg/injection, schedule: Q01DX001 (ip), vehicle: carboxymethylcellulose (CMC)) was 109 % of control. For the same compound, the T/C (dose: 22.0 mg/kg/injection, schedule: Q01DX009 (ip), vehicle: carboxymethylcellulose (CMC)) was 147 % of control, the T/C (dose: 26.0 mg/kg/injection, schedule: Q01DX009 (ip), vehicle: Klucel (hydroxypropylcellulose) (HPC)) was 130 % of control and the T/C (dose: 33.0 mg/kg/injection, schedule: Q01DX001 (ip), vehicle: carboxymethylcellulose (CMC)) was 112 % of control. The T/C (dose: 33.0 mg/kg/injection, schedule: Q01DX009 (ip), vehicle: carboxymethylcellulose (CMC)) was 96 % of control, the T/C (dose: 40.0 mg/kg/injection, schedule: Q01DX009 (ip), vehicle: Klucel (hydroxypropylcellulose) (HPC)) was 134 % of control and the T/C (dose: 50.0 mg/kg/injection, schedule: Q01DX001 (ip), vehicle: carboxymethylcellulose (CMC)) was 127 % of control. For the same compound, the T/C (dose: 50.0 mg/kg/injection, schedule: Q01DX009 (ip), vehicle: carboxymethylcellulose (CMC)) was 94 % of control [5 of 6 alive], the survivor count (dose: 60.0 mg/kg/injection, schedule: Q01DX009 (ip), vehicle: Klucel (hydroxypropylcellulose) (HPC)) was 6 of 6 and the T/C (dose: 75.0 mg/kg/injection, schedule: Q01DX001 (ip), vehicle: carboxymethylcellulose (CMC)) was 142 % of control. The T/C (dose: 75.0 mg/kg/injection, schedule: Q01DX009 (ip), vehicle: carboxymethylcellulose (CMC)) was 93 % of control, the survivor count (dose: 150.0 mg/kg/injection, schedule: Q01DX001 (ip), vehicle: carboxymethylcellulose (CMC)) was 4 of 6 and the survivor count (dose: 300.0 mg/kg/injection, schedule: Q01DX001 (ip), vehicle: carboxymethylcellulose (CMC)) was 0 of 6.
In the case of `CCC1CC[P+](c2ccccc2)(c2ccccc2)c2ccccc21.F[P-](F)(F)(F)(F)F` (stereo not given), the T/C [1] is reported as 109 % of control, the T/C [2] is reported as 115 % of control and the survivor count (dose: 200.0 mg/kg/injection, schedule: Q04DX003 (ip), vehicle: Klucel (hydroxypropylcellulose) (HPC)) is reported as 5 of 6. The survivor count (dose: 400.0 mg/kg/injection, schedule: Q04DX003 (ip), vehicle: Klucel (hydroxypropylcellulose) (HPC)) was 0 of 6.
With `CC#CC(O)(C(=O)OC1CCN(CCCC(=O)c2ccccc2)CC1)c1ccccc1` (stereo not given) the T/C (dose: 25.0 mg/kg/injection, schedule: Q01DX009 (ip), vehicle: Klucel (hydroxypropylcellulose) (HPC)) was 107 % of control, the T/C (dose: 25.0 mg/kg/injection, schedule: Q04DX003 (ip), vehicle: Klucel (hydroxypropylcellulose) (HPC)) was 95 % of control and the T/C (dose: 50.0 mg/kg/injection, schedule: Q01DX009 (ip), vehicle: Klucel (hydroxypropylcellulose) (HPC)) was 100 % of control. The T/C [1] was 98 % of control, the T/C (dose: 100.0 mg/kg/injection, schedule: Q01DX009 (ip), vehicle: Klucel (hydroxypropylcellulose) (HPC)) was 107 % of control and the T/C [2] was 104 % of control.
With `CC1C(c2ccccc2)OCCN1C` (stereo not given) the T/C (dose: 12.5 mg/kg/injection, schedule: Q01DX009 (ip), vehicle: saline) was 88 % of control, the T/C (dose: 25.0 mg/kg/injection, schedule: Q01DX009 (ip), vehicle: saline) was 90 % of control and the T/C (dose: 25.0 mg/kg/injection, schedule: Q04DX003 (ip), vehicle: saline) was 105 % of control. For the same compound, the T/C (dose: 50.0 mg/kg/injection, schedule: Q01DX009 (ip), vehicle: saline) was 97 % of control, the T/C (dose: 50.0 mg/kg/injection, schedule: Q04DX003 (ip), vehicle: saline) was 113 % of control and the T/C (dose: 100.0 mg/kg/injection, schedule: Q01DX009 (ip), vehicle: saline) was 101 % of control [5 of 6 alive]. For the same compound, the T/C (dose: 100.0 mg/kg/injection, schedule: Q04DX003 (ip), vehicle: saline) was 103 % of control, the T/C (dose: 200.0 mg/kg/injection, schedule: Q01DX009 (ip), vehicle: saline) was 95 % of control [4 of 6 alive] and the T/C (dose: 200.0 mg/kg/injection, schedule: Q04DX003 (ip), vehicle: saline) was 97 % of control. The survivor count (dose: 400.0 mg/kg/injection, schedule: Q04DX003 (ip), vehicle: saline) was 1 of 4.
